These are yes or no findings as the source states them, for the method shown. Binding seen in cells or lysates may run through a third protein. Sequences can lack the tags named with a protein.

Sequences of proteins named here, by UniProt entry; tags and fusion partners are left off.
UniProt P29311: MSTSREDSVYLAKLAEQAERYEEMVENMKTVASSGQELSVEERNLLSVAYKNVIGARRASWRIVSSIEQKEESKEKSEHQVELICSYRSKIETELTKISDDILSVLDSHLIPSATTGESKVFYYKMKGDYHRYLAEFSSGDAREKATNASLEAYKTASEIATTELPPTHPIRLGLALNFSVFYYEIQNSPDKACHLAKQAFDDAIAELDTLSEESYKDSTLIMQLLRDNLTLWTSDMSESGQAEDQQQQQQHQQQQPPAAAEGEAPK
UniProt P34730: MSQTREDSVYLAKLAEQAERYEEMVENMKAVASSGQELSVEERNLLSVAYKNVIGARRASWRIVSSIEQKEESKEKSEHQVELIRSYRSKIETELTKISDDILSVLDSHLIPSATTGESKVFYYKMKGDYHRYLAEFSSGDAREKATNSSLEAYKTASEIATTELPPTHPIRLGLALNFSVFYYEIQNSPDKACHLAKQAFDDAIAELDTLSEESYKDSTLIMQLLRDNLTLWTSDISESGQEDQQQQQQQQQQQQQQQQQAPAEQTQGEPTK

This test concerns the target T1, 6xHis-tagged (Sc)Pma1, yeast plasma-membrane H+-ATPase (S. cerevisiae) (UniProt P05030).
T1 sequence: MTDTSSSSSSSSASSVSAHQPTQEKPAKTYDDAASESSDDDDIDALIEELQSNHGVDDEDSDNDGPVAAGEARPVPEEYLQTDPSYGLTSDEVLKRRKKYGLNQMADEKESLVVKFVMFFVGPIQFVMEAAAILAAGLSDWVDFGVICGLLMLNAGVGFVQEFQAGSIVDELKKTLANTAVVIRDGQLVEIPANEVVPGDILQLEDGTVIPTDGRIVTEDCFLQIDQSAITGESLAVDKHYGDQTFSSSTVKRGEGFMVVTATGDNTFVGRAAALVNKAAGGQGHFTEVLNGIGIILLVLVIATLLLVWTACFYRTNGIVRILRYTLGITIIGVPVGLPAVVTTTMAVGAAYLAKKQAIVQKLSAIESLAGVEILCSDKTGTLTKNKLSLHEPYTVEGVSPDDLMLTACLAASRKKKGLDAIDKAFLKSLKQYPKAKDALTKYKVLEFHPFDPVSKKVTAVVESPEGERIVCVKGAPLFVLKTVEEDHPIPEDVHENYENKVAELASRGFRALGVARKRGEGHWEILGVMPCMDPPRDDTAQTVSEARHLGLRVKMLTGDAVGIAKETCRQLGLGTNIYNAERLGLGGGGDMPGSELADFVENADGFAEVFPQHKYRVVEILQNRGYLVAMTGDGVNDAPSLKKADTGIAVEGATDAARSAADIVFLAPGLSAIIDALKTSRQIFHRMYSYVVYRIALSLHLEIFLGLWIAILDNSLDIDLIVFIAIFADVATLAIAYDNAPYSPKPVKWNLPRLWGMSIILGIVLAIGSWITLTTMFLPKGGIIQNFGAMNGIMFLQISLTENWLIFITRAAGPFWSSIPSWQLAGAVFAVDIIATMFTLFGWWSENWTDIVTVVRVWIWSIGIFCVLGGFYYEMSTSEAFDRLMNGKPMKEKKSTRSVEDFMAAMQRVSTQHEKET
The test is described as follows: pull-down; His-tagged H+-ATPase pulled down from yeast cell lysates with Dynabeads; cells grown on Gluc NH4+ then shifted to Gluc proline for 4 h; lysis buffer 50 mM Tris-HCl pH 7.2, 600 mM NaCl, 1% Nonidet P-40, 0.5% sodium deoxycholate; lysates and pulled-down fractions blotted with anti-14-3-3 and anti-polyhistidine.

Take “Bmh1, yeast 14-3-3 protein (from UniProt P29311 1-267)”: the binding result is given as “no binding”. With “Bmh2, yeast 14-3-3 protein (from UniProt P34730 1-273)” the entry was “no binding”.

Source of the values: publication PMC7910539.
